This note sets out measurements from article PMC2987844.

The chains behind the UniProt entries cited, without tags or fusion partners. Residues count along the entry.
UniProt P18519, residues 20-416: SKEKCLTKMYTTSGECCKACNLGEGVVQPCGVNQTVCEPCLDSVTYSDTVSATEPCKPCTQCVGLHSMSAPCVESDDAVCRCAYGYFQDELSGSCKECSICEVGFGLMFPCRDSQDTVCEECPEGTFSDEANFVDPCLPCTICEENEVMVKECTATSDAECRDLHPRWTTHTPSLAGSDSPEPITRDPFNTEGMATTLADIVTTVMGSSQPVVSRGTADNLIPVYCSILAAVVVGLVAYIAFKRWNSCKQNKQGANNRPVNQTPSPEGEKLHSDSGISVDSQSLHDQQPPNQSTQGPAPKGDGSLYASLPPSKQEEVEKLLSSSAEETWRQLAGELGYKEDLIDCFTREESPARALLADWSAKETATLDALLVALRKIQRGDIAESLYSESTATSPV

In the assay the target is T1, ephrinA5^HA (UniProt P52804).
T1 sequence: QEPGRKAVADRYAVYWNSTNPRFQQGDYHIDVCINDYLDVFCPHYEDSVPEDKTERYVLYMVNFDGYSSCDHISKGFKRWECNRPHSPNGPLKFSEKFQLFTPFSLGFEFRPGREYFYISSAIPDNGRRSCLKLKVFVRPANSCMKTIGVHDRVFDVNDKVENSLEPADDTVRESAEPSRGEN
Kind of assay: co-IP; CHO cells co-transfected with p75^(NTR, FLAG) and ephrinA5^HA, serum starved, untreated or treated for 30 minutes with 100 ng/ml NGF, proBDNF or proNGF; lysis in 25 mM Tris pH 7.4, 150 mM NaCl, 1% Triton X100; immunoprecipitation with αHA affinity gel overnight at 4°C; western blot.

These are yes or no findings as the source states them, for the method shown. In cells and extracts the contact can be indirect. Some binding calls cover weakened binding; strength is not graded here. Where a sequence is shown, tags or fusion partners need not be part of it.

On to “p75^(NTR, FLAG) (from UniProt P18519 20-416) (receptor)”, for which the binding entry was “binds”.
